Test results published in the supplement of paper PMC12823440, “Inhibitors supercharge kinase turnover through native proteolytic circuits” (Nature, 2025).
The other results are listed elsewhere or left out. Hit calls seldom repeat between salt and free forms of one compound.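 Kinases, fused to nanoluciferase, were expressed in K562 cells; luminescence was measured every 4 h from 2 to 18 h as percent of control (DMSO = 100%, positive control = 0%). A time point is decreased if signal falls significantly (2 sigma). Hits were called by the authors by a rule that is not shown; the count of time points alone does not decide it.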

Protein sequences, listed by entry. Tags and fused reporters are not part of them.
UniProt P42356, whole entry, looked up: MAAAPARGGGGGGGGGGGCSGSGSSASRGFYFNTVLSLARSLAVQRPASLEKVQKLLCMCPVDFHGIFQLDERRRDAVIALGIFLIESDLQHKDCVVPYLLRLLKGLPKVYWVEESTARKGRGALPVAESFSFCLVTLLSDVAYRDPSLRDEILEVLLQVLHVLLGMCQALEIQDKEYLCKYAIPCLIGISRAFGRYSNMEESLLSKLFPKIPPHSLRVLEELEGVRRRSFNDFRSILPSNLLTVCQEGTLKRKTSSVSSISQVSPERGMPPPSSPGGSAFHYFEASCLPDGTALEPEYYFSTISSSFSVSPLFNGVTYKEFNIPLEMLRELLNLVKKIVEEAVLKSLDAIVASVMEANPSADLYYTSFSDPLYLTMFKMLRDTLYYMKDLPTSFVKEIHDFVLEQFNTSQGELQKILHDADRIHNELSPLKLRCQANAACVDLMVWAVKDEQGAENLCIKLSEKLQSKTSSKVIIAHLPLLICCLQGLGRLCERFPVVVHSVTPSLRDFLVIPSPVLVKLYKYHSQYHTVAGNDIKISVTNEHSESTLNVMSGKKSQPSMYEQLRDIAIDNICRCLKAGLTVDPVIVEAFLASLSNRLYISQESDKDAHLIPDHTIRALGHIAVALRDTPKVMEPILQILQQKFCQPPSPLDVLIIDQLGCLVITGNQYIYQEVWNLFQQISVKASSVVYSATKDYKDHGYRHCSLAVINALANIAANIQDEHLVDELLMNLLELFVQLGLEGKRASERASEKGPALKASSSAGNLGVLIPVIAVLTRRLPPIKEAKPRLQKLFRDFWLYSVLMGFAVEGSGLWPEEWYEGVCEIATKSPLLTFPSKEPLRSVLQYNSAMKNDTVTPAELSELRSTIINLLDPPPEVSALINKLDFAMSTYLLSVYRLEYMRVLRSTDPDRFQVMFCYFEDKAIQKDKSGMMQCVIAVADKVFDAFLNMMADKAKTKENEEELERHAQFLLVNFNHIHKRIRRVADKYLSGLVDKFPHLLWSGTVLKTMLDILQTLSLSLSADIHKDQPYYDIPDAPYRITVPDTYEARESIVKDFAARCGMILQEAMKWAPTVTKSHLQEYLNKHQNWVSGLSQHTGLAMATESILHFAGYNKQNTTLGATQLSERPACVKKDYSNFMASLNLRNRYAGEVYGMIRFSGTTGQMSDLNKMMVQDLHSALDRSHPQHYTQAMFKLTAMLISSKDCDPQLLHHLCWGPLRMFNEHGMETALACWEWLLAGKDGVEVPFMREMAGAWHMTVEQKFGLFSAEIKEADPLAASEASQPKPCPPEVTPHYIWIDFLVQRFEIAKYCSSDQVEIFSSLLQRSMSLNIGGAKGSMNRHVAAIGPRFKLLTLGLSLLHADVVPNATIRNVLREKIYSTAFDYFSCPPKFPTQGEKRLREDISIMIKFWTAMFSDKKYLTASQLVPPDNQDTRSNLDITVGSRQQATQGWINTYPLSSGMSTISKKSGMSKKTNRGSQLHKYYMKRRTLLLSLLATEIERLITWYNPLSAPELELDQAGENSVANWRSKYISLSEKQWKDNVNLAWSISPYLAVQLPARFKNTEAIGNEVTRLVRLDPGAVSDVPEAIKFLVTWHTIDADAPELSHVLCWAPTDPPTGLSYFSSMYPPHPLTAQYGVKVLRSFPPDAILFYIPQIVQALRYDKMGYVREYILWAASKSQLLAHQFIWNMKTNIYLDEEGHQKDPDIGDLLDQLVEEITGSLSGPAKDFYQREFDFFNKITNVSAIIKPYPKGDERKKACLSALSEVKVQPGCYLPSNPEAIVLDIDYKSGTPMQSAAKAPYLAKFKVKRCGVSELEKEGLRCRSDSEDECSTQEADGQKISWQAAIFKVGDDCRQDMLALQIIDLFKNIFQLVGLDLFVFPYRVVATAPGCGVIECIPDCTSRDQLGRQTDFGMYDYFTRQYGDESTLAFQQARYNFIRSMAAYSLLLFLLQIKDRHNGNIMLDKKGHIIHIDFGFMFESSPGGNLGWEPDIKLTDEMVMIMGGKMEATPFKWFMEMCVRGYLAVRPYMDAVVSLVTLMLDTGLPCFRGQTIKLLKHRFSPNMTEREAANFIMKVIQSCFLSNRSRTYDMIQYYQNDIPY

molecular target: PIK4CA (UniProt P42356); test: kinase-Nluc reporter destabilization hit call (1 = scored as downregulated) (binary); higher = compound decreases kinase abundance; conditions: K562; 2-18 h

kinase-Nluc reporter destabilization hit call, inactive:
COc1ccc2nc3ccc(OC)cc3c(SCCCN)c2c1 (10 µM) 0
NC(=O)c1sc2c([N+](=O)[O-])cc(C(F)(F)F)cc2[n+]1[O-] [Cyclapolin 9] (10 µM) 0
CS(=O)(=O)c1cccc(CNc2nc(Nc3ccc4c(c3)CCC(=O)N4)ncc2C(F)(F)F)c1 (10 µM) 0
CS(=O)(=O)c1ccc([C@@H](CC2CCCC2)C(=O)Nc2nccs2)cc1 (10 µM) 0
C=CC(=O)Nc1cc(Nc2nccc(-c3cn(C)c4ccccc34)n2)c(OCC(F)(F)F)nc1N(C)CCNC [AST5902  (trimesylate)] (2.5 µM) 0
CO/N=C1/C(c2c(O)[nH]c3cc(Cl)c(Cl)cc23)=Nc2ccccc21 (10 µM) 0
CC(ONC(=O)c1cc(C(F)(F)F)cc(C(F)(F)F)c1)C(=O)Nc1ccc(Cl)cc1 (centres undefined) (2.5 µM) 0
Cc1ccc(C2CC(=O)NC(SCC(=O)Nc3nccs3)=C2C#N)cc1 (centres undefined) [Necrostatin-34] (10 µM) 0
O=CN1CCN(c2ccc(C=C3C(=O)Nc4ccccc43)cc2)CC1 (10 µM) 0
CCCS(=O)(=O)N[C@H]1C[C@@H](N(C)c2ncnc3[nH]ccc23)C1 [Abrocitinib] (10 µM) 0
NC(=O)c1cnc(N[C@@H]2CCCC[C@@H]2N)nc1Nc1cccc(-n2nccn2)c1 (2.5 µM) 0
CS[C@@]1(C(=O)Nc2ccc3[nH]nc(-c4ccc(OC(C)C)nc4)c3c2)CCN(CC(=O)N2CC=C(c3ccc(-c4ncn(C)n4)cc3)CC2)C1 (2.5 µM) 0
Fc1ccc(Cl)cc1-c1nc(Nc2ccncc2)c2nccnc2n1 (10 µM) 0
O=C(Nc1ccccc1C(=O)NC1CCCCNC1=O)c1cc2ccccc2s1 (centres undefined) (10 µM) 0
O=C(O)c1c[nH]c2cc(Cl)c(-c3ccc(C4(O)CCC4)cc3)cc12 (10 µM) 0
CN(C[C@@H]1COCCO1)S(=O)(=O)Nc1ccc2ccc3ncc(-c4cnn(C)c4)cc3c(=O)c2c1 (2.5 µM) 0
NC(=O)c1ccccc1Nc1ccnc(Nc2cccc(O)c2)n1 (10 µM) 0
Cc1ccc2c(NS(=O)(=O)c3ccccc3Cl)cccc2c1Oc1ncccc1-c1ccnc(N[C@H]2CCCNC2)n1 (2.5 µM) 0
O=C(Nc1ccc(Cl)cc1)C1CN(C(=O)c2cccc(-c3ccco3)c2)CC(F)(F)C1 (centres undefined) (2.5 µM) 0
COc1ccc(CN2CCC(c3ccc4nc(C(=O)N5CCN(Cc6ccc(C(F)(F)F)cc6)CC5)[nH]c4c3)CC2)cn1 (2.5 µM) 0
CC(C)=CCC[C@](C)(O[C@@H]1O[C@H](CO[C@@H]2O[C@H](CO)[C@@H](O)[C@H](O)[C@H]2O)[C@@H](O)[C@H](O)[C@H]1O)[C@H]1CC[C@]2(C)[C@@H]1[C@H](O)C[C@@H]1[C@@]3(C)CC[C@H](O[C@@H]4O[C@H](CO)[C@@H](O)[C@H](O)[C@H]4O[C@@H]4O[C@H](CO)[C@@H](O)[C@H](O)[C@H]4O)C(C)(C)[C@@H]3CC[C@]12C [Ginsenoside Rb1] (10 µM) 0
COc1cc2ncnc(Nc3cc(Br)c(O)c(Br)c3)c2cc1OC (2.5 µM) 0
CO[C@]1(C(=O)N[C@@H](C)c2ccc(-n3cc(F)cn3)nc2)CC[C@H](c2nc(C)cc(Nc3cc(C)[nH]n3)n2)CC1 [Pralsetinib] (10 µM) 0
CCc1cc(Nc2nccc(-c3c(-c4ccc(OC)c(C(=O)Nc5c(F)cccc5F)c4)nc4ccccn34)n2)c(OC)cc1N1CCC(N2CCN(S(C)(=O)=O)CC2)CC1 (2.5 µM) 0
Cc1nc2c(NCc3cccc(S(C)(=O)=O)c3)nccn2c1-c1ccc(O)c(F)c1 (10 µM) 0
CNC(=O)CN1CCC(Oc2cc3c(Nc4cccc(Cl)c4F)ncnc3cc2OC)CC1 [Sapitinib] (10 µM) 0
COc1ccc(Br)c(C=O)c1O [6-Bromo-2-hydroxy-3-methoxybenzaldehyde] (10 µM) 0
N#C/C(=C/c1ccc(O)c(O)c1)C(=O)N1CCc2ccccc21 [Tyrphostin AG 528] (10 µM) 0
C[C@H](Nc1cc2c(-c3ccc4c(c3)OCO4)noc2cn1)c1ccccc1 (10 µM) 0

Of the compounds above, 2 contain a cyano group:
kinase-Nluc reporter destabilization hit call, inactive:
Cc1ccc(C2CC(=O)NC(SCC(=O)Nc3nccs3)=C2C#N)cc1 (centres undefined) [Necrostatin-34] (10 µM) 0
N#C/C(=C/c1ccc(O)c(O)c1)C(=O)N1CCc2ccccc21 [Tyrphostin AG 528] (10 µM) 0
